Test results: PMC4388601
These are yes or no findings as the source states them, for the method shown. In cells and extracts the contact can be indirect. For part of these data: A result given as binding can be weak or reduced; the word gives no strength. For part of these data: Where a sequence is shown, tags or fusion partners need not be part of it. Blank lines part the entries; values can stand above or below the binder they belong to.

Tests used:
[1] = target: Karst YFP knock-in (Drosophila (endogenous in embryos)); test: co-IP; Lysates of Karst YFP knock-in embryos (Wiso embryos also collected); GFP Trap-M beads; 10 mM Tris pH 7.5, 150 mM NaCl, 0.5% NP-40, 0.5 mM EDTA; blots with anti-GFP, anti-Merlin, anti-α-Spectrin, anti-Kibra
[2] = target: Karst isoform A; aa 1904-2632 (Drosophila); test: co-IP; Drosophila S2 cell extracts; FLAG-tagged proteins purified on anti-FLAG M2 agarose and eluted with FLAG peptide in lysis buffer (50 mM Tris pH 7.5, 150 mM NaCl, 1% Triton X-100, 10% glycerol, 1 mM EDTA); blots with anti-FLAG, anti-V5, anti-α-Spectrin
[3] = target: Karst isoform A; aa 1633-1903 (Drosophila); test: as above
[4] = target: Karst isoform A; aa 2594-4097 (Drosophila); test: as above
[5] = target: FLAG-tagged N-terminal region of Karst/βH-Spectrin (Karst isoform A; aa 1-1632) (Drosophila); test: as above

binding [1]: binds
B1: Merlin (endogenous, embryos) (protein, UniProt Q24564 1-635)
chain: MSPFGSKKNRSLSVRVSTFDSELEFKLEPRASGQDLFDLVCRTIGLRESWYFGLQYVDTRSNVSWLKMEKRVRDQRVELHASNNVYVFSFYAKFFPENVSEELIQEITQHLFFLQVKQSILSMDIYCRPEASVLLASYAVHVQYGPYDYETYKDGMLAGGELLPKGVTDQYQMTPEMWEERIKTWYMDHEPMTRDEVEMEYLKIAQDLDMYGVNYFPITNKNKTKLWLGVTSVGLNIYDERDKLTPKTTFQWNEIRHVSFDDKKFTIRLVDAKVSNFIFYSQDLHINKMILDLCKGNHDLYMRRRKPDTMEIQQMKAQAKEEKQRRQIERKKFIREKKLREKAEHERYELEKSMEHLQNEMRMANDALRRSEETKELYFEKSRVNEEQMQLTECKANHFKTEMDRLRERQMKIEREKHDLEKKIRDADFYVHQLTVENDKREAETEKLRKELICAKMAEREATARLLEFLNSGRKSSTDSLLTASSVSHAANTASSMAAISTPSLITSSSTNDLETAGGAELTTHSSHYLVQGDNSSGISDDFEPKEFILTDNEMEQITNEMERNHLDYLRNSKQVQSQLQTLRSEIAPHKIEENQSNLDILSEAQIKAGENKYSTLKKLKSGSTKARVAFFEEL

binding [1]: binds
B2: Kibra (endogenous, embryos) (protein, UniProt Q9VFG8 1-1288)
chain: MPNLQQTASQSQHHLHPHHLRPQQQQQQHHHHHQQQQQQQHTHHQQQQQHHSDFPLPDGWDIAKDFDGKTYYIDHINKKTTWLDPRDCYTKPQTFEDCVGDELPMGWEESYDPNIGPYYINHLAQSTQLEDPRQEWKTVQEQMLSDYLSAAQDQLENKREMFDVKQQRLLWAQEEYNHLKLAASRSSLCSSSSSMSRHDPELLRADLMLARERVHQLKQELTHITNDISYTERGMNTLYSVGEKINARENGCYDIAEVHAIREEMLKVHKSLVSGEKVREELMRSLVQIKNELGRQQISEENSDLASPFDRVCVASQTDLCGSSGENLNGGARFAEMAKTKWQYAEWRKHIKKLQQQLADHVERIEPGQLESDKDRILLIQEKEKLLNDLNSISLKSRSEEEKRVIHQTRHKLEEDLKEAYEANNTCVANRLRFHEEKQLLLDKLQEALKSTKLLEERLKSFSSESTFSISSGSSLGSLSTASSKSALSFTDIYIDPFAVDSPIDVVDLRRRSQRLFQQHQQQRLHPVHPVLQQQQSAEVTLSPRSSLSMETPPASPMKYNAGADQTPQALKEEPTYANALPAPPAYTAPPPVPISGVRARPYDLDSTVLDCMMLEAKLQKLNMGTPLNLAVAPLSPISEKPSLLDLPQEMLSRSSSTSNTRSVSAAVSNESVAGDSGVFEASRAHLPRKELAQVQIGLKYLKQEGVLVVSLERANNLLALWTASADNSQVYLRAALLPNSLTSIRTKALGDFQKPVFNDTFAVPITLDKLLTKSLQVTVVTMTGQKEEIIGTVQISMAEFNPEDSTLKWYNVLSSKFIPSFESLDIPSTSAAAAAAAVAASNAPNPGNNREESSDESTITSSQTSTLTRNQAPCMELQEQMAAELLGLGPLNEPECSDDDDDDEEEELDDKQLVSDVGLMNSSSMLHAYLQNMKQEFADKETNTDRAYLPEKSRGQSQLMDDRPVKRSQTFTPSEAFSKNRYNCRLNRSDSDSAMHCGVAPHTFQRGAAERRSLRFHSKAPKSVTKLHHTHIPRTSLDLELDLQAQHSKLYFLNDQIAKLQNLKEVLQKACENKDPLVAAWAIENEEFQRLVARADPAKCPEERQLQKLLMKTAKEIHKLRKTKVPKGCPDLVSFKEKITFFTRKGLSVPELPSEFTLPEANPIEEEEEEEDENEFYNSAETAIAINTALVASSNRNKNLSEHPHRATSGAVPKIPAPVVTPAATPAATPAATPAATSAATPAATPVVSPAAQPDAKPADAPIPVASNDAEQQRFDYVVDRNYGVEV

binding [2]: no binding
binding [3]: no binding
binding [4]: no binding
binding [5]: binds
B3: V5-tagged Expanded (protein, UniProt Q07436 1-1427)
chain: MRAFCTVSAPLEVCASSAEQLSPGSRFLALRLLGQQQPKTLYFLVDAKSRVREVYTQTCLHFATQGMLDTELFGLAVLIDGEYMFADPESKLSKYGPKSWRSSHTHGLDANGRPLLELHFRVQFYIESPFMLKDETSRHNYYLQLRHNILQRDLPREQAEQALVFLAGLALQADLGDAPPGTSNSKDDSGEETSASPSNGGRGLSATTTLPKISKRANERMLRLSTYVASTSKRETIPLPPSLPPNGADYYRIEDYLPSGLHTPWARSAMRACHREHLGMATAEAELLYIQQACSLHETINAHTYRMRLAKSEQGSGSAWFVVYAKGIKILGGESTNSSSNPETTTFLWPNITKLSFERKKFEIRSGESRITLYAASDEKNKLLLTLCKDTHQWSMKLAARLKEVSKREEEEAAESQRLHASYACSRSLLLPYKSKNEQRISVISSTSSNTTSGIVSDRVHSEDELEIMINTPPAPLAAPSTESLALAHLLDRPSVSRQTSSVGQMSLKDLEEQLAALSVRPQDASSNGATIVTNSSVQRNSMGTTANDSSTATDSPSSQHNIGSQCSSTCSTVVVTSPVNGAGASSSGAPIPVHSTSSSLELGFSHTAQNSALSETSPDDFLSTSAREETESVSGASGVYTLAHGAPPTETSGVYTMHSSELTGQSSEIAESEKSSHYGMFQPQKLEETHVQHSDSVDGKKKEDFRPRSDSNVSTGSSFRGDGSDPTDNKHSLLSAEELTNLIVGRGTYPSRKTVSSSLHSDCDYVTLPLGDQGEEEVDQPPAPPPPYSARHEKTGLCGPPIAKPIPKPIAVVAPKPDSPPCSPPVPPAPIPAPPPAIRRRDPPPYSISSKPRPTSLISVSSSAHPAPSAAGSMSSLKSEEVTARFITTRPQISILKAHTSLIPDGAKPSYAAPHHCSSVASSNGSVCSHQLSQQSLHNSNYAGGSQASLHHHHVPSHHRHSGSAAIGIVPYGLHKSTASLHHQQSCVLLPVIKPRQFLAPPPPSLPRQPPPPPPPNHPHLASHLYEREMARKQLELYQQQLYSDVDYVIYPIQDPAVSQQEYLDAKQGSLLAAMAQAAPPPPHHPYLAMQVSPAIYRSTPYLPLTLSTHSRYASTQNLSDTYVQLPGPGYSPLYSPSMASLCSSYEPPPPPPLHPAALAAAAAAGAGSSSSSMFARSRSDDNILNSLDLLPKGKRLPPPPPPPYVNRRLKKPPMPAPSEKPPPIPSKPIPSRMSPIPPRKPPTLNPHHANSPLTKTSSGAQWAGERPRPDLGLGLGLNRGNNSILAQLQASMVAQSHAQAQAQALDIALLREKSKHLDLPLISALCNDRSLLKQTKVVINPKTGQEMPTSSAQPSGATTNGVANSSAGAGTLSKARKGSTVSHRHPQDKLPPLPVQQLAEANNYVIDPAVMMKQQQQQQQHNKTS
